Source: patent US11786503B2, “Pharmaceutical compositions and methods for countering chemotherapy induced cardiotoxicity” (Auransa Inc., priority 2016, dated 2023)
Some entries share one result that the patent states for a list of compounds.

The chains behind the UniProt entries cited, without tags or fusion partners. Where a name states a change or a piece, a line headed by the entry shows the natural chain unless it says otherwise.
UniProt Q02880: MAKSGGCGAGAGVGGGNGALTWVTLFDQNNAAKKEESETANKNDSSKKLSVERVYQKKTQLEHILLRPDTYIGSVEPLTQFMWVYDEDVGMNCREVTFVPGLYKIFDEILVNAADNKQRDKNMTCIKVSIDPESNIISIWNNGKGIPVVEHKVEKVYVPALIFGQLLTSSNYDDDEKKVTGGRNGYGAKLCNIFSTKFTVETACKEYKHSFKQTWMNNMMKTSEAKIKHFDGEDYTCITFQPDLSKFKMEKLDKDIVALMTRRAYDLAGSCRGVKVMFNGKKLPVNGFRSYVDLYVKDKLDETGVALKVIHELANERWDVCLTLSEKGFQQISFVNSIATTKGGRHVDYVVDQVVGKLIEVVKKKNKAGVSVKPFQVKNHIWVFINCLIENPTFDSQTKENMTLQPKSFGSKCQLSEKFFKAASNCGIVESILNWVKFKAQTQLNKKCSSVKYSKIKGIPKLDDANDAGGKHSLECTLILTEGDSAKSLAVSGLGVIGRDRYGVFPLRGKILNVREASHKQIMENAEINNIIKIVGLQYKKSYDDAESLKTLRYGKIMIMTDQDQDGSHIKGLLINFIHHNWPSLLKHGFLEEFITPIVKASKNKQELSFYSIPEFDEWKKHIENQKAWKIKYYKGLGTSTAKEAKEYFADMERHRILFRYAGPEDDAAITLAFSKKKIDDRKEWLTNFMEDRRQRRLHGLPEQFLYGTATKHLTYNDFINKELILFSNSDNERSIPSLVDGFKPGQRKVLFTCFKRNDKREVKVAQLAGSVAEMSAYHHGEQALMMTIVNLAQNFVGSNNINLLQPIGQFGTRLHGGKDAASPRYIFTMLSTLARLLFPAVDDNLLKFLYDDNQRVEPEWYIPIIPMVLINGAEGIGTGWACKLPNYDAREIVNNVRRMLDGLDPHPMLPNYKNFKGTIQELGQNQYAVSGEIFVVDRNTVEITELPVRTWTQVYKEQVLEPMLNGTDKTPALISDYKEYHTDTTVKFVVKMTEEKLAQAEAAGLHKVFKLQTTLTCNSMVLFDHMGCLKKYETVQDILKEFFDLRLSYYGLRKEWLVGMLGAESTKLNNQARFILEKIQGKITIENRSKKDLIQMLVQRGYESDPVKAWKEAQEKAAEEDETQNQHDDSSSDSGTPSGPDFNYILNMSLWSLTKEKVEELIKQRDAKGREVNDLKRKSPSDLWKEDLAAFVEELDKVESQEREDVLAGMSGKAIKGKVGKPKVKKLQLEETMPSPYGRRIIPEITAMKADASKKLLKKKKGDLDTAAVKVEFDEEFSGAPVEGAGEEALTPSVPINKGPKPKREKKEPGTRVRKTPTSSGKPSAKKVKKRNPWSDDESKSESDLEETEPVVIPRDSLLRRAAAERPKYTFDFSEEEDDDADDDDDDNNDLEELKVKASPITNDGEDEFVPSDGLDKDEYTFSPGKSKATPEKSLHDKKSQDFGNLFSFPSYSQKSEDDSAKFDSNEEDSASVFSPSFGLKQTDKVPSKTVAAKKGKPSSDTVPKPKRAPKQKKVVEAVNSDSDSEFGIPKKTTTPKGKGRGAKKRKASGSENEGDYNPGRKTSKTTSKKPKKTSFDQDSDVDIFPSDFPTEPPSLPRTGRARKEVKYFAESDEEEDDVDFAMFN
UniProt P11388: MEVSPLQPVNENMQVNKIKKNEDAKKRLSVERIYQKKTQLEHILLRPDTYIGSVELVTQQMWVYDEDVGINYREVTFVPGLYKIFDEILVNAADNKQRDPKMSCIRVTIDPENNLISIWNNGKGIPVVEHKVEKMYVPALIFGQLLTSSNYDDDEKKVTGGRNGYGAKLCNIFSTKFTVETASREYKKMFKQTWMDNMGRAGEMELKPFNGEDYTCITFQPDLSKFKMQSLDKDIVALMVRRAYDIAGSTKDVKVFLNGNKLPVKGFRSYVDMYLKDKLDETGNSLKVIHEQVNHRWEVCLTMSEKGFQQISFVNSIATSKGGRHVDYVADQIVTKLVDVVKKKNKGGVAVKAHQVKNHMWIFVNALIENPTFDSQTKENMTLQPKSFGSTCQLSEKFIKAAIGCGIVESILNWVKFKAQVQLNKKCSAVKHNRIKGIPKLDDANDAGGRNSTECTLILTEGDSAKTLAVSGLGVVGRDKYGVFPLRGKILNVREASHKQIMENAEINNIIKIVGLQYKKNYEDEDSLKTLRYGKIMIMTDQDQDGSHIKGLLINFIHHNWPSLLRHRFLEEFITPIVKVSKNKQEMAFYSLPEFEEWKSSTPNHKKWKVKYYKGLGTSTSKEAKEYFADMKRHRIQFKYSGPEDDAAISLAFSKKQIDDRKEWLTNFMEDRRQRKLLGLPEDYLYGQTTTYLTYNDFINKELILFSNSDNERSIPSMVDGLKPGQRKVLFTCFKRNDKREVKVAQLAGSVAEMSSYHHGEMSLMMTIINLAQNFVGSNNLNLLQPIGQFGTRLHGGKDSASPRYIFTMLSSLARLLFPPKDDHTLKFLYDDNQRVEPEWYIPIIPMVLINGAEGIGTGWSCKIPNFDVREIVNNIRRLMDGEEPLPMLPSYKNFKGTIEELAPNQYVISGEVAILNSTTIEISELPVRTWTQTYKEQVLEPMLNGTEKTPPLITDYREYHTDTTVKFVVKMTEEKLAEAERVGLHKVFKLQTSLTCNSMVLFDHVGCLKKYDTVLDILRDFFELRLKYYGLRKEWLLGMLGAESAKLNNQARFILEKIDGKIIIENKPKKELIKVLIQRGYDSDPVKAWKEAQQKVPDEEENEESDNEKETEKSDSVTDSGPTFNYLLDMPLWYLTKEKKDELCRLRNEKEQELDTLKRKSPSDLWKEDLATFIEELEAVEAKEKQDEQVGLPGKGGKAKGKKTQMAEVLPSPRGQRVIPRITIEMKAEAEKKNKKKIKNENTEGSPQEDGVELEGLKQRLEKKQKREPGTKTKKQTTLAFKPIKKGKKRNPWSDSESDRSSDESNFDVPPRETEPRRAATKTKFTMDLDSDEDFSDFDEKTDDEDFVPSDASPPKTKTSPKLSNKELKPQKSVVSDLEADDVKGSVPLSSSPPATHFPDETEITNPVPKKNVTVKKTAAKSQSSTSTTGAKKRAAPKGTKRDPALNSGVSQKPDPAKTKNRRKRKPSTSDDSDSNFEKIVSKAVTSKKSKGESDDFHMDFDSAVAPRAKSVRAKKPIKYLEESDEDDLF

Tests used:
TOPOIIβ = molecular target: T1, TOPOIIβ (Homo sapiens, UniProt Q02880); assay: kDNA decatenation assay, TOPOIIβ; assay type: biochemical;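 further: kinetoplast DNA incubated with one unit of TOPOIIβ at 37 °C for 30 min, decatenated product resolved on 1% agarose gel, inhibition scored from relative band intensity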
T1 construct: purchased Inspiralis

TOPOIIα = molecular target: T2, TOPOIIα (Homo sapiens, UniProt P11388); assay: kDNA decatenation assay, TOPOIIα; assay type: biochemical;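 further: kDNA incubated with one unit of TOPOIIα at 37 °C for 30 min, decatenated product resolved on 1% agarose gel, inhibition from relative band intensity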
T2 construct: purchased Inspiralis

[1] = test system: cardiomyocytes differentiated from induced pluripotent stem cells; assay: doxorubicin-induced apoptosis, TUNEL dye, 48 hours (Example 18); assay type: cell-based, human; settings: 1 μM doxorubicin, VIT 115 μM, Dex 160 μM, AMB 0.76 μM, NAC 50 μM, KAE 17 μM, MES 10 μM
Experimental: Following treatment, the samples were incubated with a TUNEL dye to indicate apoptosis-positive cells, and a second dye to identify cell nuclei.

[2] = test system: cardiomyocytes differentiated from induced pluripotent stem cells; assay: doxorubicin-induced mitochondrial toxicity, TMRM-negative cells, 48 hours (Example 17); assay type: cell-based, human; settings: 1 μM doxorubicin, KAE 17 μM, AMB 0.76 μM, MES 10 μM, NAC 50 μM, Dex 160 μM, VIT 115 μM
Experimental: Following treatment, the samples were incubated with a tetramethylrhodamine methyl ester (TMRM) dye to indicate mitochondrial health, and a second dye to identify cell nuclei.

| SMILES | concentration giving TOPOIIβ inhibition (TOPOIIβ) | concentration giving TOPOIIα inhibition (TOPOIIα) | decrease in apoptosis, compared to doxorubicin without protective agent [1] | decrease in mitochondrial toxicity, compared to doxorubicin without protective agent [2] |
| --- | --- | --- | --- | --- |
| O=c1c(O)c(-c2cc(O)c(O)c(O)c2)oc2cc(O)ccc12 [Compound 2, 3,7,3′,4′,5′-pentahydroxyflavone] | less than 10 μM | less than 10 μM | – | – |
| O=c1c(O)c(-c2ccc(O)cc2)oc2cc(O)cc(O)c12 [Compound 7, 3,5,7,4′-tetrahydroxyflavone] | – | – | at least 40% | – |
| CC(=O)N[C@@H](CS)C(=O)O [N-acetyl cysteine] | – | – | at least 50% | at least 40% |
| Nc1c(Br)cc(Br)cc1CN[C@H]1CC[C@H](O)CC1 [ambroxol] | – | – | at least 50% | at least 40% |
| C[C@@H](CN1CC(=O)NC(=O)C1)N1CC(=O)NC(=O)C1 [dexrazoxane] | – | – | at least 50% | at least 30% |
| Nc1ccc(O)c(C(=O)O)c1 [mesalamine] | – | – | at least 40% | at least 40% |
| O=c1cc(-c2ccc(O)cc2)oc2c([C@@H]3O[C@H](CO)[C@@H](O)[C@H](O)[C@H]3O)c(O)cc(O)c12 [vitexin] | – | – | – | at least 30% |
